By UniProt entry, the sequences of proteins in these tests, tags left out. Where a name states a change or a piece, a line headed by the entry shows the natural chain unless it says otherwise.
UniProt Q7TPB0: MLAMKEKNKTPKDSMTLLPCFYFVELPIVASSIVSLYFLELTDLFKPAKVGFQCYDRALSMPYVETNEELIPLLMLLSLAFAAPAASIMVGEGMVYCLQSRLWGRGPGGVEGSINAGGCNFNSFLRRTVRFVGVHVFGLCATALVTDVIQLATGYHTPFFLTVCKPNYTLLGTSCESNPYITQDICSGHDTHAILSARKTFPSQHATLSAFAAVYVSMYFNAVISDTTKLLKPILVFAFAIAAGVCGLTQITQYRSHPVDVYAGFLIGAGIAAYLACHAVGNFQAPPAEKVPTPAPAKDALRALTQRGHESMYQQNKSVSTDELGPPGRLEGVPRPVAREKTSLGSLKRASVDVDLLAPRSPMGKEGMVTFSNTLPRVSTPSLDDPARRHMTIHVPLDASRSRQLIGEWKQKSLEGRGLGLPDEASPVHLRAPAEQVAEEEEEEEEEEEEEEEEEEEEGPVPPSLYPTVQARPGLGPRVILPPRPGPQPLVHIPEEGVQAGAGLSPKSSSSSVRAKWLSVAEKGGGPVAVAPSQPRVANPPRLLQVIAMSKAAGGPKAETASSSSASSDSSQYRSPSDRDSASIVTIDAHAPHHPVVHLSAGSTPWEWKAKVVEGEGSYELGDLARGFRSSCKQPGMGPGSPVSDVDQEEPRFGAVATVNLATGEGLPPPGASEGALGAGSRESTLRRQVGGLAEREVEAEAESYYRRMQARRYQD

According to publication PMC12496174:

Target: T1, BASP1-turboGFP (UniProt Q91XV3)
T1 sequence: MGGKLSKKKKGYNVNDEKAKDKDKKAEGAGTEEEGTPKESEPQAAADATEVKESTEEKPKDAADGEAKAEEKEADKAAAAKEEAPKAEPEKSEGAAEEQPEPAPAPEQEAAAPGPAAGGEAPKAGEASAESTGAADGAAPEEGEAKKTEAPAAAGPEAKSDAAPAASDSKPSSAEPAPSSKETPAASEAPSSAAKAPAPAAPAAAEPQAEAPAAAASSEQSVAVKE
Assay: co-IP; HEK293T cells expressing BASP1-tGFP and ICDm-His (or ICDm-S351A); lysis and washes in Ripa buffer; BASP1 immunoprecipitated with turboGFP antibody overnight at 4°C, Dynabeads Protein A; blot for PLPPR3; steady state or 30 uM Forskolin for 10 min

binding: binds
Substance: PLPPR3 ICDm-His (membrane-tagged intracellular domain of PLPPR3) (from UniProt Q7TPB0) (domain or fragment)

These are yes or no findings as the source states them, for the method shown. In cells and extracts the contact can be indirect. Binding can be weak; no strength is given. Tags and fused reporters may be left off the sequences shown.
